PubChem BioAssay AID652272 | Drosophila RNAi Screening Center – 2013

Test: 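Genome-wide knock-down search for components of Hedgehog signalling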 (primary screen)
System: Drosophila clone 8 (Cl8) cells
Reagents: long dsRNA against Drosophila genes
Detection: 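Plate reader light from a firefly reporter under a ptc promoter fragment that responds to Hedgehog, with Renilla light as transfection reference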
Scale: firefly Hh reporter signal: higher = more ptc reporter light; Renilla reference signal: higher = more Renilla control light
Call rule: 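Hit when the z-score averaged over two replicates is under -2 or over +3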
Meaning of the calls: active = hit: reporter lowered or raised; inactive = not a hit
The deposit covers about 21,000 reagents; shown is a random part of those with a known target gene and a result. Of all reagents, 503 (2.4%) were called active. 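Raw plate light values, not normalised; calls rest on replicate z-scores that were not deposited; hits include reporter decreases as well as increases.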 Entries without a mark were called inactive. Reagents against one gene are numbered here. Reagent sequences are not shown. Not stated in the record: the amount of reagent, the time to read-out.

gene | dsRNA no. | firefly Hh reporter signal, replicate 1 | firefly Hh reporter signal, replicate 2 | Renilla reference signal, replicate 1 | Renilla reference signal, replicate 2
Cyp6a17 (Cytochrome P450 6a17) | 1 | 1.39e5 | 81510 | 5545 | 2266
Fim (Fimbrin) | 1 | 77670 | 1.19e5 | 2006 | 3108
CG3281 | 1 | 1.71e5 | 1.35e5 | 7254 | 5005
CG6870 | 1 | 1.32e5 | 49338 | 3207 | 4921
pasha (partner of drosha) | 1 | 1.11e5 | 90304 | 2978 | 3191
beat-Vc (beaten path Vc) | 1 | 36572 | 1.84e5 | 3019 | 2902
beat-Vc (beaten path Vc) | 2 | 1.16e5 | 1.10e5 | 4503 | 2163
CG10550 | 1 | 67860 | 1.22e5 | 1552 | 2899
Oxp (Oxpecker) | 1 | 83093 | 44955 | 2160 | 3304
JhI-26 (Juvenile hormone-inducible protein 26) | 1 | 1.33e5 | 85130 | 5832 | 3539
Fnta (Farnesyl transferase alpha subunit) | 1 | 70825 | 45714 | 2537 | 2055
ATPsynF (ATP synthase, subunit F) | 1 | 1.16e5 | 1.05e5 | 4258 | 3869
Iml1 (Increased minichromosome loss 1) | 1 | 87339 | 78388 | 4043 | 3587
Rrp42 | 1 | 70052 | 56979 | 2133 | 4205
CG8560 | 1 | 1.01e5 | 52199 | 4422 | 2581
Trax (Translin associated factor X) | 1 | 1.03e5 | 68915 | 4647 | 1731
CCT5 (Chaperonin containing TCP1 subunit 5) | 1 | 54587 | 53692 | 2641 | 2032
CG32551 | 1 | 4.89e5 | 2.18e5 | 25979 | 2819
tgo (tango) | 1 | 1.11e5 | 1.01e5 | 3872 | 3725
CG10646 | 1 | 6.07e5 | 96794 | 4008 | 4008
CNMa (CNMamide) | 1 | 62700 (active) | 27741 | 2760 | 4266
Gr23a (Gustatory receptor 23a) | 1 | 1.14e5 | 77424 | 2935 | 1824
cnn (centrosomin) | 1 | 1.64e5 | 2.97e5 | 4785 | 12283
cnn (centrosomin) | 2 | 73946 | 58704 | 1814 | 4433

Reformatted: entries from further up.
gene,dsRNA no.,"firefly Hh reporter signal, replicate 1","firefly Hh reporter signal, replicate 2","Renilla reference signal, replicate 1","Renilla reference signal, replicate 2"
Fim (Fimbrin),1,77670,1.19e5,2006,3108
CG3281,1,1.71e5,1.35e5,7254,5005
CG6870,1,1.32e5,49338,3207,4921
